Article PMC8891752
Results are given in words; binding and its absence hold for the method and conditions named. In cells and extracts the contact can be indirect. Some binding calls cover weakened binding; strength is not graded here. For some assays here: Sequences can lack the tags named with a protein.

Sequences of proteins named here, by UniProt entry; tags and fusion partners are left off.
UniProt P61421: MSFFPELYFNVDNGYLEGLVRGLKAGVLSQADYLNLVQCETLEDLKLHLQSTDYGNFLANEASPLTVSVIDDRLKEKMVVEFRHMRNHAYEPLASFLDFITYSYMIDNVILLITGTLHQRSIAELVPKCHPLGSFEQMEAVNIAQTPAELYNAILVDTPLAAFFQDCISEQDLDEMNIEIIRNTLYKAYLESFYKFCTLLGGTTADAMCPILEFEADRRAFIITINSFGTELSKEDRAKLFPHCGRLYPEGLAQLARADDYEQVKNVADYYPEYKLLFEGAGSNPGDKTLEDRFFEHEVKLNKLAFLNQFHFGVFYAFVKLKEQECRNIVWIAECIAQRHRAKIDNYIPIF

Experiments:
HPS6 (endogenous) = target: T1, HPS6 (endogenous) (UniProt Q86YV9); assay: co-IP; endogenous immunoprecipitation of HPS6, ATP6V0D1 detected; data not shown; cells not given
T1 sequence: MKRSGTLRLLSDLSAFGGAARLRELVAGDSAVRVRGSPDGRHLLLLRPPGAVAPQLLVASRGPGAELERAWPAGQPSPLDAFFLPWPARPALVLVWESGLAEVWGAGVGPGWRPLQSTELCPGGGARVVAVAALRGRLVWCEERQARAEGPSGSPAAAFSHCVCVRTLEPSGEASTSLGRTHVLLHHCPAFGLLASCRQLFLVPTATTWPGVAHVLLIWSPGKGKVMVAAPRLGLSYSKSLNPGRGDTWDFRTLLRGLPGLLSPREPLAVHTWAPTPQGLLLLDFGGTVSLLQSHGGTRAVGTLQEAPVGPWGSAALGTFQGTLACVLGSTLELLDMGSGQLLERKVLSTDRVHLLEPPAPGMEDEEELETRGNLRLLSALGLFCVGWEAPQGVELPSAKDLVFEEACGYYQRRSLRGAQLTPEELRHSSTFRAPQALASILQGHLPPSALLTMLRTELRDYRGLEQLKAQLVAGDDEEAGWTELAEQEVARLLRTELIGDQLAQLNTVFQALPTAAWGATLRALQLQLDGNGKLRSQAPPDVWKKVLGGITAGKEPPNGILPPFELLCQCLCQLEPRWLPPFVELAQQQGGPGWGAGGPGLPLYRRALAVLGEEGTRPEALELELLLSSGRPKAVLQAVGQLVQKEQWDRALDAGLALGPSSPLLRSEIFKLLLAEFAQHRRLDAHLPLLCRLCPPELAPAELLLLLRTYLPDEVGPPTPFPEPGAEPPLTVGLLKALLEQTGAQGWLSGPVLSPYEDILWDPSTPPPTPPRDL

Flag-tagged HPS6 = target: T2, Flag-tagged HPS6 (UniProt Q86YV9); assay: co-IP; 293 T cells co-transfected with Flag-HPS6 and Myc-ATP6V0D1; lysate (Tris-HCl pH 7.4, NaCl, EDTA, 1% Triton X-100) incubated overnight at 4°C with anti-FLAG M2 affinity gel, washed 4 times; blots with anti-Myc and anti-Flag
T2 sequence: T1 sequence

binding (HPS6 (endogenous)) | binding (Flag-tagged HPS6) | Substance
binds |  | ATP6V0D1 (endogenous) (from UniProt P61421 1-351)
 | binds | Myc-tagged ATP6V0D1 (from UniProt P61421 1-351)
